Here are results for 104 compounds from the supplement of paper PMC12578635.

± gives the standard deviation of the averaged measurements. The list shows a part of the results. Many values rest on one well or one pass, so single values are uncertain.

This test concerns RAW 264.7 macrophages infected with S. aureus JE2-lux. In words: host macrophage viability (CellTiter-Fluor) relative to DMSO vehicle; higher = more viable host cells. The settings on record: 10 µM; treatment time 4 h; gentamicin 50 µg/ml.
`O=C(Cn1cnc2c(nnn2Cc2ccc(F)cc2)c1=O)Nc1ccccc1C(F)(F)F`: the host macrophage viability worked out at 104 ± 8%.
With `COc1ccc(-c2n[nH]c3nc(-c4ccc(Cl)cc4)cc(C(=O)NCc4ccc(C)cc4)c23)cc1`, the host macrophage viability came to 103%.
For `Cc1nn(Cc2c(F)cccc2Cl)c(=O)c2noc(C)c12` the value was 94.9%.
Turning to `C=CCn1c(SCC(=O)Nc2sc3c(c2C(=O)OCC)CCC3)nc2ccccc2c1=O`, the host macrophage viability was 118 ± 7.6%.
`CCOC(=O)c1c(C)oc2ncn(Cc3ccccc3)c(=O)c12`: the host macrophage viability is 108%.
The value for `COc1ccccc1N1C(=O)N(c2ccccc2Cl)C2CS(=O)(=O)CC21` (centres undefined) was 126%; that for `O=C1NC2=C(C(=O)N(CCO)C2)C(c2ccc(OCc3ccccc3)cc2)N1` (centres undefined) was 108%; that for `CC(=O)C(C)n1c(=O)c2c(nc3n(-c4ccc(F)cc4)c(-c4ccccc4)cn23)n(C)c1=O` (centres undefined) was 113%.
`Cc1cc(-c2csc(S(=O)(=O)Nc3cccc(Br)c3)c2)on1`: the host macrophage viability is 119%.
The value for `CC12CC(NC(=O)N1c1cccc(C(=O)O)c1)c1cc(Br)ccc1O2` (centres undefined) was 117%.
The value for `Cc1c(C(=O)Nc2c(C(=O)Nc3ccc4c(c3)OCCO4)oc3ccccc23)cccc1[N+](=O)[O-]` was 111%; that for `O=C(O)c1ccc(C(=O)NCC2CCCO2)c(C(=O)O)c1` (centres undefined) was 123%; that for `O=C(Nc1cc(-c2cccs2)nnc1O)C1CCC1` was 118%.
As for `CCNC(=O)c1n[nH]c2c1CCc1cc(OC)ccc1-2`, the host macrophage viability was 125%.
For `Cc1ccc(N2CC(C(=O)N3CCN(c4ncnc5c4nnn5-c4ccc(C)cc4)CC3)CC2=O)cc1` (centres undefined) the value was 122%; for `O=C(O)CCn1nc(Nc2ccccc2)n(-c2ccccc2)c1=S`, 105 ± 1.1%.
On to `COCCn1c(SCC(=O)N2CCc3ccccc32)nc2cccnc21`, for which the host macrophage viability turned out to be 109%.
For `COc1ccc2nc(NC(=O)CSc3nnc4nc(C)cc(C)n34)sc2c1` the value was 109%; for `CSc1ccc(NC(=O)NCCc2ccncc2)cc1`, 107%; for `COc1cccc(-c2cc3nc(C)c(Cl)c(O)n3n2)c1`, 121%.
The value for `COCCCNc1c(-c2ccc(C)cc2)nc2sc3cc(C)ccc3n12` was 80.2%; that for `Cc1nc(SCC(=O)NCc2ccco2)[nH]c(=O)c1C` was 124%; that for `O=C(NC(=O)c1ccc(F)cc1)Nc1ccncc1` was 145%.
For `CCn1cc(SCC(=O)Nc2ccc(OC)cc2)c2ccccc21` the value was 127%.
In the case of `COc1ccc(CN2C(=O)c3cccc4cccc(c34)C2=O)cc1`, the host macrophage viability came to 125%.
The value for `O=C(Nc1ccc(F)cc1F)c1cccnc1-c1ccsc1` was 106%; that for `CCOC(=O)c1ccc(/N=c2\oc3ccc(OC)cc3cc2C(N)=O)cc1` was 117 ± 6.4%; that for `COc1ccccc1CCNC(=O)C(=O)NCC1OCCN1S(=O)(=O)c1ccc([N+](=O)[O-])cc1` (centres undefined) was 121%.
Regarding `Cc1ccc2nnc(-c3ccccc3)c(C(=O)Nc3ccc(F)cc3)c2c1`, the host macrophage viability amounted to 91.4%.
For the compound `O=C(CSc1ncnc2c1sc1nc3ccccc3cc12)c1ccc2c(c1)OCCO2`, the host macrophage viability amounted to 121%.
The value for `Cc1cc2c(=O)n(Cc3ccco3)c(SCC(=O)Nc3ccc4c(c3)OCO4)nc2s1` was 126%; that for `CN(C)CCCNc1ncnc2sc3c(c12)CCCC3` was 112%; that for `CC1CN(C(=O)c2ncoc2-c2ccc(F)cc2)CC(C)O1` (centres undefined) was 87.8%.
The value for `CSc1ncc(C(=O)Nc2nc(-c3c[nH]c4cc(C)ccc34)cs2)cn1` was 112%.
The value for `Cc1nn(-c2ccccc2)c2ncc(C(=O)Nc3ccc4c(c3)OCCO4)c(Cl)c12` was 114%; that for `N#CC1=C(N)Oc2c(oc(CO)cc2=O)C12C(=O)N(Cc1ccccc1)c1ccccc12` (centres undefined) was 127%.
Turning to `CCOc1ccc(CN2C(=O)c3ccccc3C2C(=O)NCCCOC(C)C)cc1` (centres undefined), the host macrophage viability is 119%.
In the case of `CC(=O)Nc1ccc(Nc2ncnc3c2c(C)c(C)n3-c2ccccc2)cc1`, the host macrophage viability amounted to 113%.
With `Cc1ccc(Cl)cc1NS(=O)(=O)c1cc(-c2nc(C)c(C)s2)cs1`, the host macrophage viability stood at 113%.
As for `Cc1ccc(-c2nnc3ccc(SCC(=O)Nc4cc(C)on4)nn23)cc1`, the host macrophage viability was found to be 104 ± 14%.
The value for `CCn1/c(=N/C(=O)CSCC(=O)Nc2nccs2)sc2ccccc21` was 105%; that for `O=C(CN1C(=O)CC(c2ccco2)Sc2ccccc21)Nc1ccccc1` (centres undefined) was 121 ± 20%; that for `CCOC(=O)Nc1ccc2c(c1)C(=O)Nc1cc(C)ccc1O2` was 118%.
For the compound `CCOc1ccc2nc(NC(=O)CN3C(=O)c4ccccc4C3=O)sc2c1`, the host macrophage viability was found to be 106 ± 6%.
As for `CN1CCc2c(sc(NC(=O)c3cc(-c4ccccc4)nc4ccccc34)c2C(N)=O)C1`, the host macrophage viability turned out to be 127%.
The value for `CC1(C)Cc2c(sc(NC(=O)CN3C(=O)CCC3=O)c2C(N)=O)C(C)(C)N1` was 125%; that for `O=C(/C=C/c1cccs1)Nc1nc2c(s1)CSc1ccccc1-2` was 92.4%.
The value for `CC1CN(CC(=O)Nc2ccc3[nH]c(CN4CCCCC4)nc3c2)CC(C)O1` (centres undefined) was 127%.
The value for `Cc1cccc(CNc2nc(N3CCN(C)CC3)nc3c2cnn3C)c1` was 106%.
With `CCOc1ccc(C(=O)Nc2cc(=O)n(C)c(=O)n2C)cc1`, the host macrophage viability is 113%.
For `Cc1cc2c(=O)n(CC(=O)Nc3cnn(Cc4ccc(F)cc4)c3)cnc2s1` the value was 111%.
Take `CC(NC(=O)C(C)N1C(=O)NC(C)(C)C1=O)c1ccc2c(c1)CCC2` (centres undefined): the host macrophage viability came out at 120%.
For `O=C1C2C(c3ccc(O)cc3)NN(Cc3ccccc3)C2C(=O)N1C1CCCCC1` (centres undefined) the value was 142%; for `O=C(Nc1nnc(Cc2cccc(F)c2)s1)c1cc2c([nH]c1=O)CCCCC2`, 133%.
For `CCN(c1ccccc1)S(=O)(=O)c1ccc(C(=O)Nc2ccc3ncsc3c2)cc1` the value was 105%.
The value for `CCOc1cccc2c1OC(c1ccncc1)N1N=C(c3cccc(O)c3)CC21` (centres undefined) was 129%.
With `COc1ccc(C)c2s/c(=N\C(=O)C3COc4ccccc4O3)n(C)c12` (centres undefined), the host macrophage viability is 99.3%.
For `COc1ccc2nc(Nc3sc4c(c3C(N)=O)CCC(C)C4)sc2c1` (centres undefined), the host macrophage viability turned out to be 109 ± 3%.
For `CSC1=C(C#N)C(c2ccncc2)C(C(=O)Nc2ccccc2)=C(C)N1` (centres undefined), the host macrophage viability was found to be 108%.
As to `O=C(CCCn1c(=S)[nH]c2cc3c(cc2c1=O)OCO3)N1CCN(C(=O)c2ccco2)CC1`, the host macrophage viability worked out at 123%.
Take `Cn1c(=O)n(CCCO)c(=O)c2c1nc1n(-c3ccccc3F)c(-c3ccccc3)cn21`: the host macrophage viability is 107%.
With `Cc1cccc(NC(=O)C(=O)NCCCO)c1C`, the host macrophage viability stood at 96.7%.
Turning to `Cc1nc2nc(-c3ccccc3)nn2c(Sc2ccc(N)cc2)c1C`, the host macrophage viability worked out at 90.9%.
The value for `O=C(Nc1ccc(C(=O)OCc2nc3ccccc3[nH]2)cc1)c1ccc2nccnc2c1` was 108%; that for `Cc1ccc(C2C(C(=O)c3ccco3)=C(O)C(=O)N2CCCN(C)C)cc1` (centres undefined) was 96.6%; that for `CCn1nc(C)c2[nH]c(=S)n(Cc3cccc(OC)c3)c(=O)c21` was 127%.
For `C/C(=N\Nc1nc2c(c(=O)[nH]c(=O)n2C)n1CC(C)C)c1ccccc1` the value was 134%; for `CCOc1ccc(-c2cc3c(N4CCC(C(=O)NCc5cccnc5)CC4)nccn3n2)cc1`, 139%; for `CCOC(=O)c1ccccc1NC(=O)CSc1nc2c(-c3ccccc3)csc2c(=O)n1C`, 115%.
The value for `COc1ccccc1-n1c(SCC(=O)Nc2ccccc2F)nc2cccnc21` was 113%; that for `CCOC(=O)c1c(NC(=O)CSc2nc(N)cc(=O)[nH]2)sc(C)c1C` was 123%.
Turning to `CCCc1cc(O)n2nc(-c3cccc(OC)c3)cc2n1`, the host macrophage viability was 118%.
For `O=C(c1cccn2c(-c3ccc(F)cc3)nnc12)N1CCC(Cc2ccccc2)CC1` the value was 115%; for `Cn1c(=O)[nH]c(=O)c2c1nc(Br)n2CCSc1nc2ccccc2s1`, 96.6%; for `COc1ccc(-c2noc(NCc3cccnc3)n2)cc1`, 118%.
The value for `Cc1ccc(Cl)cc1NC(=O)Cn1c(=O)c2nnc(CCC(=O)NC(C)C)n2c2ccccc21` was 121%; that for `O=C(CN1C(=O)COc2ccccc21)NNC(=O)Nc1ccccc1F` was 124%; that for `Cc1cc(C)cc(NC(=O)CSc2nc3c(c(=O)[nH]2)CN(C(C)C)CC3)c1` was 115%.
The value for `COc1ccccc1CNC(=O)CSc1nc(=O)[nH]cc1C` was 105%; that for `Cc1ccc(NC(=O)Cn2c3c(sc2=O)C2c4cc([N+](=O)[O-])ccc4OCC2CS3)cc1` (centres undefined) was 111%; that for `O=C(Nc1ccc(Cl)cc1)N1CCc2nc(N3CCCCC3)ncc2C1` was 132%.
On to `O=C(Nc1ccc2ccccc2c1)c1cc2ccccc2oc1=O`, for which the host macrophage viability was 101 ± 1.6%.
On to `Fc1cccc(Cl)c1CSc1nnc2ccc(-c3ccccn3)nn12`, for which the host macrophage viability worked out at 118%.
The value for `CCn1c(SCC(=O)NCc2ccc(F)cc2)nc2c(c1=O)SC(C)C2` (centres undefined) was 122%; that for `O=C(NCC(c1cccs1)S(=O)(=O)c1cccs1)Nc1ccc(Cl)cc1` (centres undefined) was 110%.
For `O=C(CC1(O)C(=O)Nc2ccc(Cl)cc21)c1cccs1` (centres undefined) the value was 109%.
The value for `CC1CCCCN1S(=O)(=O)c1ccc2c(c1)c(=O)n(CC(=O)N1CCCC1)c(=O)n2C` (centres undefined) was 116%.
In the case of `CC(=O)c1cnc2cc(C(=O)NC(c3ccccc3)c3cccnc3)nn2c1C` (centres undefined), the host macrophage viability worked out at 124%.
As for `O=C(CSc1nnc(-c2ccco2)c(-c2ccco2)n1)c1cccs1`, the host macrophage viability amounted to 109%.
`Cc1cc(OC(=O)c2ccc(Br)o2)c([N+](=O)[O-])c(=O)[nH]1`: the host macrophage viability came to 121%.
As to `Cc1cc(N2CCOCC2)nc(SCC(=O)Nc2ccc(Cl)cc2Cl)n1`, the host macrophage viability was 129%.
For `Cc1ccc(-c2nsc(NC(=O)c3oc4cc(Br)ccc4c3C)n2)s1` the value was 112%; for `O=C(COc1coc(CN2CCN(c3ccccc3F)CC2)cc1=O)Nc1cccc([N+](=O)[O-])c1`, 104%; for `COc1ccccc1NC(=O)CN1C(=O)C2(SCC(=O)N2c2cccc(F)c2)c2cc(C)ccc21` (centres undefined), 123%.
`COCCNC(=O)CN1CCN(c2ncc(NC(C)=O)cc2C(=O)O)CC1`: the host macrophage viability was found to be 115%.
Turning to `Cn1c(=O)[nH]c(=O)c2c1nc1n2CC(c2ccc(Br)cc2)O1` (centres undefined), the host macrophage viability is 113%.
For `COc1ccc(C(=O)Nc2sc3c(c2C(N)=O)CCCCC3)c(OC)c1` the value was 117 ± 2.3%; for `Cc1ccc(-c2ncc3c(=O)n(CC(=O)Nc4nccs4)c(=O)n(C)c3n2)cc1`, 130%.
For `Cn1nc(C(C)(C)C)cc1C(=O)N1CCc2c(nc(N3CCOCC3)[nH]c2=O)C1` the value was 136%; for `COc1cccc(-c2ocnc2C(=O)Nc2ccc(CN3CCCCC3)cc2)c1`, 102%.
The value for `O=C(COc1ccc(Cl)cc1)Nc1nc2c(s1)CSc1ccccc1-2` was 120%; that for `CCc1c(C)nc2ncnn2c1Sc1ccc(NC(=O)C2CC(=O)N(c3ccc(C)cc3)C2)cc1` (centres undefined) was 116%; that for `O=C(NCc1n[nH]c(=O)c2ccccc12)Nc1c(F)cccc1F` was 135%.
As for `COC(=O)c1cccc(-n2nnnc2SCC(=O)Nc2ccc(F)cc2)c1`, the host macrophage viability came out at 90.7%.
